Data as given in PubChem BioAssay AID1159578 (Peter MacCallum Cancer Centre, 2015)

- Aim: 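Genome-wide hunt for genes controlling movement of lymphatic endothelial cells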 (primary screen)
- Cell system: human lymphatic endothelial cells
- Knock-down reagent: siRNA pool against human genes, 40 nM
- Duration: 48 h after transfection
- Measured: 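Cells stained with dye and imaged after a scratch; covered wound area and nuclei counted, duplicates averaged, migration set against mock wells and turned into a robust z-score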
- Scale: migration robust z-score: higher = faster migration into the scratch; nuclei per well: higher = more cells in the well
- Rule for the call: 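Migration changed when robust z exceeds 2 or falls below -2 and mean nuclei number is at least 3300; otherwise not called changed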
- Calls: active = migration changed; inactive = no migration change, or too few cells
Here is one part, drawn at random, of about 18,000 reagents tested. About 1,030 of them (5.7%) count as active. 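Inactive calls also include pools with fewer than 3300 nuclei, whose migration was not assessed.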 Raw values vary from plate to plate and are shown uncorrected. Unmarked entries are inactive. The numbers tell different reagents against one gene apart. Not all columns of the deposit are shown.

CDC45 | migration robust z-score: -0.29; migration class with cell-count check: migration z between -2 and 2; enough cells; nuclei per well, duplicate mean: 4296
ORC1 | migration robust z-score: 0.82; migration class with cell-count check: migration z between -2 and 2; enough cells; nuclei per well, duplicate mean: 5874
PLEKHH1 | migration robust z-score: 0.37; migration class with cell-count check: migration z between -2 and 2; enough cells; nuclei per well, duplicate mean: 5858
FCRLA | migration robust z-score: 0.67; migration class with cell-count check: migration z between -2 and 2; enough cells; nuclei per well, duplicate mean: 4585
EIF4EBP2 | migration robust z-score: -1.56; migration class with cell-count check: migration z between -2 and 2; enough cells; nuclei per well, duplicate mean: 4696
RBM7 | migration robust z-score: -0.93; migration class with cell-count check: migration z between -2 and 2; enough cells; nuclei per well, duplicate mean: 3790
GTSF1L | migration robust z-score: -0.09; migration class with cell-count check: migration z between -2 and 2; enough cells; nuclei per well, duplicate mean: 6418
TSPYL4 | migration robust z-score: -0.38; migration class with cell-count check: migration z between -2 and 2; enough cells; nuclei per well, duplicate mean: 5644
AZIN2 | migration robust z-score: 0.5; migration class with cell-count check: migration z between -2 and 2; enough cells; nuclei per well, duplicate mean: 6224
ZFHX3 | migration robust z-score: 0.13; migration class with cell-count check: migration z between -2 and 2; enough cells; nuclei per well, duplicate mean: 6096
EDC4 | migration robust z-score: -1.5; migration class with cell-count check: migration z between -2 and 2; enough cells; nuclei per well, duplicate mean: 6422
CCDC178 | migration robust z-score: -0.3; migration class with cell-count check: migration z between -2 and 2; enough cells; nuclei per well, duplicate mean: 5634
TNFSF11 | migration robust z-score: -0.88; migration class with cell-count check: migration z between -2 and 2; enough cells; nuclei per well, duplicate mean: 4490
OR3A2 | migration robust z-score: 0.52; migration class with cell-count check: migration z between -2 and 2; enough cells; nuclei per well, duplicate mean: 6003
ATP6V1E1 | migration robust z-score: 0.86; migration class with cell-count check: migration z between -2 and 2; enough cells; nuclei per well, duplicate mean: 6958
RFX3 | migration robust z-score: 0.03; migration class with cell-count check: migration z between -2 and 2; enough cells; nuclei per well, duplicate mean: 4044
CEMIP2 | migration robust z-score: 0.79; migration class with cell-count check: migration z between -2 and 2; enough cells; nuclei per well, duplicate mean: 6656
FEM1C | migration robust z-score: 1.45; migration class with cell-count check: migration z between -2 and 2; enough cells; nuclei per well, duplicate mean: 5577
LARP4 | migration robust z-score: -0.46; migration class with cell-count check: migration z between -2 and 2; enough cells; nuclei per well, duplicate mean: 6501
ABCA6 | migration robust z-score: 0.83; migration class with cell-count check: migration z between -2 and 2; enough cells; nuclei per well, duplicate mean: 5870
ERCC6L2 #1 | migration robust z-score: 0.82; migration class with cell-count check: migration z between -2 and 2; enough cells; nuclei per well, duplicate mean: 5832
ERCC6L2 #2 | migration robust z-score: 0.62; migration class with cell-count check: migration z between -2 and 2; enough cells; nuclei per well, duplicate mean: 4927

Targets listed so far whose target name starts with C or c (3):
CDC45 | migration robust z-score: -0.29; migration class with cell-count check: migration z between -2 and 2; enough cells; nuclei per well, duplicate mean: 4296
CCDC178 | migration robust z-score: -0.3; migration class with cell-count check: migration z between -2 and 2; enough cells; nuclei per well, duplicate mean: 5634
CEMIP2 | migration robust z-score: 0.79; migration class with cell-count check: migration z between -2 and 2; enough cells; nuclei per well, duplicate mean: 6656
